Measurements as given in paper PMC4045235.
No constants are given. Whether binding was seen depends on the method and setting. Binding seen in cells or lysates may run through a third protein. These calls come from enrichment with a bait or labelling near it, and not all partners need be listed.

Chains of the proteins cited; added tags and fusions are not shown. Residues count along the entry.
UniProt Q14999: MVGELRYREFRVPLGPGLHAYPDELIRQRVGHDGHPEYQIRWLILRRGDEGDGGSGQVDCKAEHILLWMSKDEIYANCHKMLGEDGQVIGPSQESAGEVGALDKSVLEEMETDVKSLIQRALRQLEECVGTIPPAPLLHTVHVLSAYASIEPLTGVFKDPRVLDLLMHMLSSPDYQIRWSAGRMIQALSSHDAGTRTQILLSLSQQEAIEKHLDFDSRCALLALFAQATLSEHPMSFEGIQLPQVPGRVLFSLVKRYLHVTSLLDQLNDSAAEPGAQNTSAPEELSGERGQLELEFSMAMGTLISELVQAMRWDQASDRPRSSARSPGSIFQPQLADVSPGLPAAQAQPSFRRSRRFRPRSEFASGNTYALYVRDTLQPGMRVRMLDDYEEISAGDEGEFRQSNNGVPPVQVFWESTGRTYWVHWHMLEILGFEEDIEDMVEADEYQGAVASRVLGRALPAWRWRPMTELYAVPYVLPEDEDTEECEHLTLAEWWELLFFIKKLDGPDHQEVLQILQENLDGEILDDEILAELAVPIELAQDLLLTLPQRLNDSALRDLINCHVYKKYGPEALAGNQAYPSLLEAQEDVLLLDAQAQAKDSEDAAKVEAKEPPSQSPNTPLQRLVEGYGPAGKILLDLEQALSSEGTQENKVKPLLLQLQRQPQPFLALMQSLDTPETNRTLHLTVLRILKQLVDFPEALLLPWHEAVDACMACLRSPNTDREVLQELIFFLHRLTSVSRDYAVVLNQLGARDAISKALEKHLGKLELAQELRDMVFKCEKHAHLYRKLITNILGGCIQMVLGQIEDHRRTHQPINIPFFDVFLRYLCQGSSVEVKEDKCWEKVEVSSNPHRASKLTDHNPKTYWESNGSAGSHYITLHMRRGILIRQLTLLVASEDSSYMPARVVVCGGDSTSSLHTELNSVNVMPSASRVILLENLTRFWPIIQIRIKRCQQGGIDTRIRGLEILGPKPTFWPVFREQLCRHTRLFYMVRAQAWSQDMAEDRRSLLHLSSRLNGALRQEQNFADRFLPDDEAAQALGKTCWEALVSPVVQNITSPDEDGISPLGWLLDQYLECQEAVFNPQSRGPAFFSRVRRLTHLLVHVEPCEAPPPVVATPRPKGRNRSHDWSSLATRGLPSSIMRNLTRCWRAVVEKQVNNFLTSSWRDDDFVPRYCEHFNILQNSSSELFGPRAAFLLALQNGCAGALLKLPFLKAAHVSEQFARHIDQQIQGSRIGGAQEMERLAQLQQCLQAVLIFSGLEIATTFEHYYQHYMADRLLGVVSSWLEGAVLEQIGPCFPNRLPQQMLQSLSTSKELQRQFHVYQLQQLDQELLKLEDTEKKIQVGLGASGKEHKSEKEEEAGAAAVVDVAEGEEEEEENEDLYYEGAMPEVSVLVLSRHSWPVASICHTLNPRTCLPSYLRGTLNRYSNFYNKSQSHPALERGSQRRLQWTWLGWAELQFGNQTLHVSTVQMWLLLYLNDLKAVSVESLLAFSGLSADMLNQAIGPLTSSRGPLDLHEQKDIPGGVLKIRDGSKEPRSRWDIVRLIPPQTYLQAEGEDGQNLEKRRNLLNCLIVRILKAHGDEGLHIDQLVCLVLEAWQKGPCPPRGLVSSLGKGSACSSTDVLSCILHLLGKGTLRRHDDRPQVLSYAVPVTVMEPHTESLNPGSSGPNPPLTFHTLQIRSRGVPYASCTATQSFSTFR
UniProt P15924: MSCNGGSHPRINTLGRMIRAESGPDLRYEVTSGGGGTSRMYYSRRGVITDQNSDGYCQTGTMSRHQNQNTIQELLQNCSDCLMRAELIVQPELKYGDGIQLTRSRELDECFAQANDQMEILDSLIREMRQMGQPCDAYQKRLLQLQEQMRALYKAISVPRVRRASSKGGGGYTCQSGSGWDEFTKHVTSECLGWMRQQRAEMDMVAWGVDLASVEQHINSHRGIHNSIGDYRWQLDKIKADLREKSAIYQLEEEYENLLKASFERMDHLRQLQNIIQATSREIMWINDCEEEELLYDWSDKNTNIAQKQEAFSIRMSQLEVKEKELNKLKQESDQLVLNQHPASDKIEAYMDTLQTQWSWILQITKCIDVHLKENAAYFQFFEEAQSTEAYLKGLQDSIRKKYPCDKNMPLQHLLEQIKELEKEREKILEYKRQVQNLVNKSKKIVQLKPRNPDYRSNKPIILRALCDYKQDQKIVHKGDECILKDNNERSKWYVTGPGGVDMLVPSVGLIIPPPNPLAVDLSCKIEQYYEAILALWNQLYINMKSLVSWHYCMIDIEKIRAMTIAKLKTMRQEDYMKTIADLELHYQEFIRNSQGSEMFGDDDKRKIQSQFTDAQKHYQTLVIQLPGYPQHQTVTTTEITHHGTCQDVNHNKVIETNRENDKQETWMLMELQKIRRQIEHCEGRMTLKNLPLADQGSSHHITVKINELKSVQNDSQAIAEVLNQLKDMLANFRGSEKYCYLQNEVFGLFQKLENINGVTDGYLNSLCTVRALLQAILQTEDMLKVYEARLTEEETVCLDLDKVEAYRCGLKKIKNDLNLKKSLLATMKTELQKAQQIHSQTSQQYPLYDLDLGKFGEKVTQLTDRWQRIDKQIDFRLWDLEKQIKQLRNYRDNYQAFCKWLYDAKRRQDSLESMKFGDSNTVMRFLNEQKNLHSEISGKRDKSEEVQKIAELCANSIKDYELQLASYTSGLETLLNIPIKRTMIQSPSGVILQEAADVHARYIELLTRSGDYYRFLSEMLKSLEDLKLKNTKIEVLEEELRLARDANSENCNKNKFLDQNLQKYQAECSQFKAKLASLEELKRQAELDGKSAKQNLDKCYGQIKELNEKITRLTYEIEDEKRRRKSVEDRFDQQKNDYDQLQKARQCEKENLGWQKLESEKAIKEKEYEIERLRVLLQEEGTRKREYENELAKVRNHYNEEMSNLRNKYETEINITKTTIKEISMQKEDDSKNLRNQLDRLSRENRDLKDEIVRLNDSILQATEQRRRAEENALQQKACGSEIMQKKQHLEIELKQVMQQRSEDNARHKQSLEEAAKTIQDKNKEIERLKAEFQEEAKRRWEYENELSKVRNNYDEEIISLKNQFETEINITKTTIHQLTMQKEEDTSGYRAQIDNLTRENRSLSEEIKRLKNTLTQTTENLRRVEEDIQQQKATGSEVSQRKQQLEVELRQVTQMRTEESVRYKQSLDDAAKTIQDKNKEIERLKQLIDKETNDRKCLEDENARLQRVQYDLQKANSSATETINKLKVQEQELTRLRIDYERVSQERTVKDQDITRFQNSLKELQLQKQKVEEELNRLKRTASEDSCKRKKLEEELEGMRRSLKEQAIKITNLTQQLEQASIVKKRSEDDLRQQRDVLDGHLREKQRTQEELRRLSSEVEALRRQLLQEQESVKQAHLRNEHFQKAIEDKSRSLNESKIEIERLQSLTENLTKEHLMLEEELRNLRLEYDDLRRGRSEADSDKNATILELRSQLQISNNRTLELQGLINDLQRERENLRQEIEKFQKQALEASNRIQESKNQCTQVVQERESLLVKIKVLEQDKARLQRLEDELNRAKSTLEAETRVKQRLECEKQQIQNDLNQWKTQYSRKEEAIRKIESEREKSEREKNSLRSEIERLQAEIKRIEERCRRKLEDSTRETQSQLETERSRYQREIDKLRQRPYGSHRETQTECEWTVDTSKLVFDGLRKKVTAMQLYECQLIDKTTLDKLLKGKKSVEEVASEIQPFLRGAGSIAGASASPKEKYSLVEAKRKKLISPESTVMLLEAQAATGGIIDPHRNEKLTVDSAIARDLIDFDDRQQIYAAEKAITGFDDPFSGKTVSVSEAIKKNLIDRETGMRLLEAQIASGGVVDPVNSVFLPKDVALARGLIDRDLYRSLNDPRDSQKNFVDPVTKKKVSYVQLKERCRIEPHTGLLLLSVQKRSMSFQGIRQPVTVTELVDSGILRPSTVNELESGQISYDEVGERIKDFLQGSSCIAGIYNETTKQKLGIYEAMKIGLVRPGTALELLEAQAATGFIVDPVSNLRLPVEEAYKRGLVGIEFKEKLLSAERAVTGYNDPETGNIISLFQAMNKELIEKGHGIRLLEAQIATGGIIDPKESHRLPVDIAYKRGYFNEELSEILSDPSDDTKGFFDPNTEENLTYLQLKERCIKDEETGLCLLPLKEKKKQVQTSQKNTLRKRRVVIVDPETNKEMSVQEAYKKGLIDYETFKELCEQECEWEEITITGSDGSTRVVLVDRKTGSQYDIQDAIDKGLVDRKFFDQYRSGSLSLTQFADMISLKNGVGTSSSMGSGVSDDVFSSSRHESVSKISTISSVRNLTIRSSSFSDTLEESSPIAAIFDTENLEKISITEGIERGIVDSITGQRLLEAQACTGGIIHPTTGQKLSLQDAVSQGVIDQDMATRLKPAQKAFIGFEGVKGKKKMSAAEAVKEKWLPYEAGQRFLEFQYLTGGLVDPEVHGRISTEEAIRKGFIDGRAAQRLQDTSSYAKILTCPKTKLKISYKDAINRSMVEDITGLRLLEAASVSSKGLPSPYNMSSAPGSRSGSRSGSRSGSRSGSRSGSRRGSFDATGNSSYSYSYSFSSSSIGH
UniProt P68104: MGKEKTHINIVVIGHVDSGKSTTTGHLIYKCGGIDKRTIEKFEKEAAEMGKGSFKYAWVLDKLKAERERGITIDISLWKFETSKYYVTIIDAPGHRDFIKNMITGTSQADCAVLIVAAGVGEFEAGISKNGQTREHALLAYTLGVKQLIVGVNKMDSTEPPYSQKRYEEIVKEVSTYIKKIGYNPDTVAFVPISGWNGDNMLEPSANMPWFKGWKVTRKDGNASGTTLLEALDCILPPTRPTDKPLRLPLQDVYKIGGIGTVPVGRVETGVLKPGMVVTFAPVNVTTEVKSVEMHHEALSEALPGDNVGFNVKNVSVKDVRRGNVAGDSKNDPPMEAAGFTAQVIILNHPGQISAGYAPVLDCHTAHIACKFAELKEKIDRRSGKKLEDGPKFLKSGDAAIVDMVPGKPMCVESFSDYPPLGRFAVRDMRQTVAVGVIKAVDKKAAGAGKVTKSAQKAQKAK
UniProt P60842: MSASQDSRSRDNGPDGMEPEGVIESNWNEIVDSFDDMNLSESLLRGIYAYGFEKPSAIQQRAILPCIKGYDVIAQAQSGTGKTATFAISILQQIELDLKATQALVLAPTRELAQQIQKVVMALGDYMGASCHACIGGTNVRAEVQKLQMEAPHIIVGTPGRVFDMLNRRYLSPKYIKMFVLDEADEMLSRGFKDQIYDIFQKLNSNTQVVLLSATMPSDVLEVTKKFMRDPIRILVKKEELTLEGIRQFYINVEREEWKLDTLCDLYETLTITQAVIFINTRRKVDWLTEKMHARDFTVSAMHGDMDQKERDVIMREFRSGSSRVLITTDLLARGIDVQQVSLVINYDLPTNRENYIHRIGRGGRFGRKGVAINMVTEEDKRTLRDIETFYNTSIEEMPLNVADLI
UniProt P06748: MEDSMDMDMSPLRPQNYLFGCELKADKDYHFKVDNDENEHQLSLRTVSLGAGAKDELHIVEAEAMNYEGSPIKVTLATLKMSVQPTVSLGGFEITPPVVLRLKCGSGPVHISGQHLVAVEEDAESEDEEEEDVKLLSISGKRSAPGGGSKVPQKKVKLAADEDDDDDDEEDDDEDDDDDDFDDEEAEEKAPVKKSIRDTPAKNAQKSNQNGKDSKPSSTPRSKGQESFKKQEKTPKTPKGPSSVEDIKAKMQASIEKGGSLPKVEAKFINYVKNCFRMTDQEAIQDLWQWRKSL
UniProt P10809, residues 27-573: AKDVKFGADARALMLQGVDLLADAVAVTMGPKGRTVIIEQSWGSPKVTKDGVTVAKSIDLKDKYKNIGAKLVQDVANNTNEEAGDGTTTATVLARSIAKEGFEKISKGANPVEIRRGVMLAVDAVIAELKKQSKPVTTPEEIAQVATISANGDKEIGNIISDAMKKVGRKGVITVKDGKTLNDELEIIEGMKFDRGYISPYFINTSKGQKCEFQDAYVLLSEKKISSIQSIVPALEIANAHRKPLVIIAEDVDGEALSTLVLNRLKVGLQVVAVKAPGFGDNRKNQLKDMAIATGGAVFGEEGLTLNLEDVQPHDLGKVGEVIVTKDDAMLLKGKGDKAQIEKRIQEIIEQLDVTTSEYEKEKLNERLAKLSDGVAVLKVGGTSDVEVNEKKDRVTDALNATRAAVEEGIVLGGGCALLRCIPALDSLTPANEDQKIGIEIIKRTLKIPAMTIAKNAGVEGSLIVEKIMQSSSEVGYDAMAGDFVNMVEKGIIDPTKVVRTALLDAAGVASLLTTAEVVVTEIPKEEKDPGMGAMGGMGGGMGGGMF
UniProt Q13242: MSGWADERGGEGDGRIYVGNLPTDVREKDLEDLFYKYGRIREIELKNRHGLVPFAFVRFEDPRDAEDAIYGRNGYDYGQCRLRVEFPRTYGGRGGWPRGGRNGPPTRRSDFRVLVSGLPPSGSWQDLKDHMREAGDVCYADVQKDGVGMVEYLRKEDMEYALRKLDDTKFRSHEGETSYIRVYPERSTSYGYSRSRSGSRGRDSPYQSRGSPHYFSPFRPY

Experiments:
Assay in all cases: affinity purification with mass spectrometry; lysates of HEK293 cells transfected with CUL7, V5-OBSL1 or CCDC8, 24 h post-transfection; IP with CUL7, V5 or CCDC8 antibody on protein G Dynabeads; SDS-PAGE, GeLC-MS/MS; proteins found in no antibody control IPs removed; only proteins present in all three IPs kept
CCDC8 = target: T1, CCDC8 (UniProt Q9H0W5)
T1 sequence: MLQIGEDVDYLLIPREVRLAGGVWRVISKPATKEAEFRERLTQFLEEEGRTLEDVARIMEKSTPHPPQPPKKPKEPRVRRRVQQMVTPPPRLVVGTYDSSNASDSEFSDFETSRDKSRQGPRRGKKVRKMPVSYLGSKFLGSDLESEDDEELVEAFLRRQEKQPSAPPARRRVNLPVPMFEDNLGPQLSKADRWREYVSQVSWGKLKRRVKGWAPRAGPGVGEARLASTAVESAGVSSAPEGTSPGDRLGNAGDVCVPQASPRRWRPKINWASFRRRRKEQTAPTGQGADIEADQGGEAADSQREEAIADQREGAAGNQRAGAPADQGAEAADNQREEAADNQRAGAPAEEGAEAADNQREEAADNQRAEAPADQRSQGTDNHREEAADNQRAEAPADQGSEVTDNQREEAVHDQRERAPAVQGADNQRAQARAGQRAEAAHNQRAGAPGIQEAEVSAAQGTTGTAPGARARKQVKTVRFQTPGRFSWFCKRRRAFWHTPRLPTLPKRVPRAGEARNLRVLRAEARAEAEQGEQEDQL

CUL7 = CUL7 (UniProt Q14999)
V5-OBSL1 = V5-OBSL1 (UniProt O75147)

Substance	binding (CCDC8)	binding (CUL7)	binding (V5-OBSL1)
ACTN4 (from UniProt O43707 1-911)	binds	binds	binds
COPA (from UniProt P53621 1-1224)	binds	binds	binds
DDX5 (from UniProt P17844 1-614)	binds	binds	binds
DSG2 (from UniProt Q14126 50-1118)	binds	binds	binds
DSP (from UniProt P15924 1-2871)	binds	binds	binds
EEF1A1 (from UniProt P68104 1-462)	binds	binds	binds
EIF4A1 (from UniProt P60842 1-406)	binds	binds	binds
ELAVL1 (from UniProt Q15717 1-326)	binds	binds	binds
ENO1 (from UniProt P06733 1-434)	binds	binds	binds
FLNA (from UniProt P21333 1-2647)	binds	binds	binds
HDAC2 (from UniProt Q92769 1-488)	binds	binds	binds
HSP90B1 (from UniProt P14625 22-803)	binds	binds	binds
HSPA5 (from UniProt P11021 19-654)	binds	binds	binds
HSPA9 (from UniProt P38646 47-679)	binds	binds	binds
IGF2BP3 (from UniProt O00425 1-579)	binds	binds	binds
KPNB1 (from UniProt Q14974 1-876)	binds	binds	binds
NPM1 (from UniProt P06748 1-294)	binds	binds	binds
NUP205 (from UniProt Q92621 1-2012)	binds	binds	binds
PARP1 (from UniProt P09874 1-1014)	binds	binds	binds
PDIA3 (from UniProt P30101 25-505)	binds	binds	binds
PTBP1 (from UniProt P26599 1-557)	binds	binds	binds
SNRNP200 (from UniProt O75643 1-2136)	binds	binds	binds
TJP1 (from UniProt Q07157 1-1748)	binds	binds	binds
TP53 (from UniProt P04637 1-393)	binds		binds
TPR (from UniProt P12270 1-2363)	binds	binds	binds
XRCC5 (from UniProt P13010 1-732)	binds	binds	binds
XRCC6 (from UniProt P12956 1-609)	binds	binds	binds
YWHAE (from UniProt P62258 1-255)	binds	binds	binds

Second part, the substance after the results:

binding (CCDC8)	binding (CUL7)	binding (V5-OBSL1)	Substance
binds	binds	binds	ATP5B (from UniProt P06576 48-529)
binds	binds	binds	CAD (from UniProt P27708 1-2225)
binds	binds	binds	CCT8 (from UniProt P50990 1-548)
binds	binds	binds	CLTC (from UniProt Q00610 1-1675)
binds	binds	binds	DYNC1H1 (from UniProt Q14204 1-4646)
binds	binds	binds	EEF1G (from UniProt P26641 1-437)
binds	binds	binds	GAPDH (from UniProt P04406 1-335)
binds	binds	binds	HNRNPH1 (from UniProt P31943 1-449)
binds	binds	binds	HSP90AB1 (from UniProt P08238 1-724)
binds	binds	binds	HSPD1 (from UniProt P10809 27-573)
binds	binds	binds	IQGAP1 (from UniProt P46940 1-1657)
binds	binds	binds	KRT5 (from UniProt P13647 1-590)
binds	binds	binds	LMNA (from UniProt P02545 1-646)
binds	binds	binds	LMNB1 (from UniProt P20700 1-586)
binds	binds	binds	NOP56 (from UniProt O00567 1-594)
binds	binds	binds	NUMA1 (from UniProt Q14980 1-2115)
binds	binds	binds	PABPC1 (from UniProt P11940 1-636)
binds	binds	binds	PLEC (from UniProt Q15149 1-4684)
binds	binds	binds	PPP2R1A (from UniProt P30153 1-589)
binds	binds	binds	PRKDC (from UniProt P78527 1-4128)
binds	binds	binds	RBMX (from UniProt P38159 1-391)
binds	binds	binds	SRSF9 (from UniProt Q13242 1-221)
binds	binds	binds	TRIM28 (from UniProt Q13263 1-835)
binds	binds	binds	YBX1 (from UniProt P67809 1-324)
